Data published in PMC7681008.
No constants are given. Whether binding was seen depends on the method and setting. Binding seen in cells or lysates may run through a third protein. Some results given as binding are weak or reduced against the parent protein; the word gives no strength. Sequences can lack the tags named with a protein. Each block holds one molecule with its values, some of them ahead of it.

The chains behind the UniProt entries cited, without tags or fusion partners.
UniProt Q05195: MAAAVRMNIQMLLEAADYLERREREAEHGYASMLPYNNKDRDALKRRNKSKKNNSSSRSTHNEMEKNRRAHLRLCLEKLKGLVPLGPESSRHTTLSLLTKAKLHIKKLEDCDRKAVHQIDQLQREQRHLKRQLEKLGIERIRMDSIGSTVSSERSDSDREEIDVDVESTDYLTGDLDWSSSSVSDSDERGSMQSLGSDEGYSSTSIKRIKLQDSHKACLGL
UniProt P61244: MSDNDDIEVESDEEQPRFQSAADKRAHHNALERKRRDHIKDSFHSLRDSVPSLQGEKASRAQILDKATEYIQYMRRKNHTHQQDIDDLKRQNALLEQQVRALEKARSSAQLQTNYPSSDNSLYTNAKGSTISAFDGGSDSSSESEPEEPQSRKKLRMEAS

Biological target: T1, carbohydrate response element-binding protein (ChREBP), Flag-tagged (mouse) (UniProt Q99MZ3)
T1 sequence: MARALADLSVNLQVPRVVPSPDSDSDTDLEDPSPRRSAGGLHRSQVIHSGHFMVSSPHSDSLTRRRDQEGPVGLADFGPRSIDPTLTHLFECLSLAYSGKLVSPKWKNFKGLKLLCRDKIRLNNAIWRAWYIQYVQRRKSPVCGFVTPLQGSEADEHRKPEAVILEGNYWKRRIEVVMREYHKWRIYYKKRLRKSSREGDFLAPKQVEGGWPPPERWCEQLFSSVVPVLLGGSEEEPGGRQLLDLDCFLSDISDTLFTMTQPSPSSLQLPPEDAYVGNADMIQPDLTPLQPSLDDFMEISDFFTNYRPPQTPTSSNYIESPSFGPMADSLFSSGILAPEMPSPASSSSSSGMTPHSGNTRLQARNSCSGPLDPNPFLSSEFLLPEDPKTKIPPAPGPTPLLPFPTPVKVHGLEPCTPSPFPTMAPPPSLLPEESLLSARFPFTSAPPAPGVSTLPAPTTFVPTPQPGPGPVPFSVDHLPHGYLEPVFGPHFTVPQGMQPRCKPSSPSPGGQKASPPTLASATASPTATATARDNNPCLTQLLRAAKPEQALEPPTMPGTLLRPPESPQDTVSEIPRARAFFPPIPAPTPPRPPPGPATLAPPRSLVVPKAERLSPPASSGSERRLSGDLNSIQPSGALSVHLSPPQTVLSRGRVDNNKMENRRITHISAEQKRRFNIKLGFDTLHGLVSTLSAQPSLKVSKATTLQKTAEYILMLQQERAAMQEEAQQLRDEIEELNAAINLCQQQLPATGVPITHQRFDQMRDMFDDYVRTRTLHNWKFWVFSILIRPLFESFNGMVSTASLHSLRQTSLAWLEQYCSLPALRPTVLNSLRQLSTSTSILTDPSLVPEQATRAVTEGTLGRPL
Experiment: co-IP; podocytes cotransfected with Flag-ChREBP, Myc-Mlx, HA-Max and HA-Mxd1 singly or in combinations; lysis in TNMG buffer (50 mM Tris-HCl pH 8.0, 50 mM NaCl, 5 mM MgCl2, 10% glycerol, 0.5% Nonidet P-40); IP with magnetic anti-Flag M2 beads, elution with 100 ug/ml 3x Flag peptide; immunoblots against HA and Myc; HA-MXD1 and HA-MAX tested with and without coexpressed Myc-Mlx

binding: binds
Molecule: MAX dimerization protein 1 (MXD1), HA-tagged (from UniProt Q05195 1-221)

binding: binds
Molecule: Myc-associated factor X (MAX), HA-tagged (from UniProt P61244 1-160)

binding: binds
B1: MAX-like protein X (MLX), Myc-tagged (protein, UniProt O08609 1-298)
chain: MTEPGASPEDPWVKASFADAHAGEGRAGRARARRGSGRRGAPQLSPESPLLSGARGCREDSSHPACAKVEYAYSDNSLDPGLFVESTHKGSVVSRANSIGSTSASSVPNTDDEDSDYQQEAYKESYKDRRRRAHTQAEQKRRDAIKRGYDDLQTIVPTCQQQDFSIGSQKLSKAIVLQKTIDYIQFLHKEKKKQEEEVSTLRKDVTALKIMKVNYEQIVKAHQDNPHEGEDQVSDQVKFNVFQGIMDSLFQSFNASISVASFQELSACVFSWIEEHCEPQTLREIVIGVLHQLKNQLY
